Reference: publication doi:10.1101/2021.09.09.459568
These are yes or no findings as the source states them, for the method shown. Binding seen in cells or lysates may run through a third protein. Some binding calls cover weakened binding; strength is not graded here.

Protein sequences, listed by entry. Tags and fused reporters are not part of them. Residues count along the entry.
UniProt Q80U70: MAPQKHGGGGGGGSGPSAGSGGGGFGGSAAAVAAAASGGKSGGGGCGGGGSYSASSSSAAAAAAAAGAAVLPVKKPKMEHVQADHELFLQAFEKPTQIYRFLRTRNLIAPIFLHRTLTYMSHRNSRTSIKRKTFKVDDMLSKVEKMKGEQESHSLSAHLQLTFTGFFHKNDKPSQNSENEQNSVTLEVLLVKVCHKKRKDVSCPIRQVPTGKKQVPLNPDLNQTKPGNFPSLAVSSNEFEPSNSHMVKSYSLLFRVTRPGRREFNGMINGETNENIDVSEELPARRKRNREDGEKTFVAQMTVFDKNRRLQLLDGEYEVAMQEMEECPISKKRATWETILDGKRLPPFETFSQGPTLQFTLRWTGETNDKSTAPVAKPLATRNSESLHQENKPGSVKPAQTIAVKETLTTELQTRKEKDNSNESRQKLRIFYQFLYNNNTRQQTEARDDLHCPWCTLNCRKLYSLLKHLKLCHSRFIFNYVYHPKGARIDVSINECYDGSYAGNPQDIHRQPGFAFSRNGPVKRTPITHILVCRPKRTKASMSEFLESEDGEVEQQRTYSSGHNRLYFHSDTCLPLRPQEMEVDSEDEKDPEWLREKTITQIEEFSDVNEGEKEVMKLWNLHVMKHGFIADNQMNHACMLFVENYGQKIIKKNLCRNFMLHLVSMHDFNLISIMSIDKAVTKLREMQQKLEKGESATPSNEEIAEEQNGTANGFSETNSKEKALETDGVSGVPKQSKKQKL
UniProt O09106: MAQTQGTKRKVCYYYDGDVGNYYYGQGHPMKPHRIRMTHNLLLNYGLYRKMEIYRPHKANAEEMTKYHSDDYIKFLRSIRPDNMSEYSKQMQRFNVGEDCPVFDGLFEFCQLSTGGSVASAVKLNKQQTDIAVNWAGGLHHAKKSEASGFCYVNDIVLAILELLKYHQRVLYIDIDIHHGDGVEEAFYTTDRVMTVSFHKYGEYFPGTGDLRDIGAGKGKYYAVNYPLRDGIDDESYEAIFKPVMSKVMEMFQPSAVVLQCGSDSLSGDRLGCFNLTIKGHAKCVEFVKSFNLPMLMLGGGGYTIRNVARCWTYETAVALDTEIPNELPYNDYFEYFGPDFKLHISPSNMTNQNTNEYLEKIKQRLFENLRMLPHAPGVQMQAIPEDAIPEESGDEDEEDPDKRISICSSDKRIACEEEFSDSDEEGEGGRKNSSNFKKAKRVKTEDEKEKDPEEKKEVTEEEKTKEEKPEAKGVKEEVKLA
UniProt Q921E6: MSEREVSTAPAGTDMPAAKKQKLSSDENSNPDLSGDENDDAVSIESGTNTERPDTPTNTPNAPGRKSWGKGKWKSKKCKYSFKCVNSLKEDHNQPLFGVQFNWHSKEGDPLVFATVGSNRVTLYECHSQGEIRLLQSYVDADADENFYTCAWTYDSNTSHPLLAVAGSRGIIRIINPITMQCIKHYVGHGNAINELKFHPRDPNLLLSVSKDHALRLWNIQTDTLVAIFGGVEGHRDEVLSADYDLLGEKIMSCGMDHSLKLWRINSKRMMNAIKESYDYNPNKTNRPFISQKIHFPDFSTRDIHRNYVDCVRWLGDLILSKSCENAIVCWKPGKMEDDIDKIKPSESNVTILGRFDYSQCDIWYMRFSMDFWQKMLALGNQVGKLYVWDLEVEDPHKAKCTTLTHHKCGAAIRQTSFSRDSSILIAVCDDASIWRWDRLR
UniProt Q60972, residues 1-126: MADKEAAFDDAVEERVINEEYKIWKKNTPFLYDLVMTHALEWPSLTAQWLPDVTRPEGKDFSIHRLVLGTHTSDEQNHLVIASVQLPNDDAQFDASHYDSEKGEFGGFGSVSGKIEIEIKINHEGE
UniProt Q8K4B0: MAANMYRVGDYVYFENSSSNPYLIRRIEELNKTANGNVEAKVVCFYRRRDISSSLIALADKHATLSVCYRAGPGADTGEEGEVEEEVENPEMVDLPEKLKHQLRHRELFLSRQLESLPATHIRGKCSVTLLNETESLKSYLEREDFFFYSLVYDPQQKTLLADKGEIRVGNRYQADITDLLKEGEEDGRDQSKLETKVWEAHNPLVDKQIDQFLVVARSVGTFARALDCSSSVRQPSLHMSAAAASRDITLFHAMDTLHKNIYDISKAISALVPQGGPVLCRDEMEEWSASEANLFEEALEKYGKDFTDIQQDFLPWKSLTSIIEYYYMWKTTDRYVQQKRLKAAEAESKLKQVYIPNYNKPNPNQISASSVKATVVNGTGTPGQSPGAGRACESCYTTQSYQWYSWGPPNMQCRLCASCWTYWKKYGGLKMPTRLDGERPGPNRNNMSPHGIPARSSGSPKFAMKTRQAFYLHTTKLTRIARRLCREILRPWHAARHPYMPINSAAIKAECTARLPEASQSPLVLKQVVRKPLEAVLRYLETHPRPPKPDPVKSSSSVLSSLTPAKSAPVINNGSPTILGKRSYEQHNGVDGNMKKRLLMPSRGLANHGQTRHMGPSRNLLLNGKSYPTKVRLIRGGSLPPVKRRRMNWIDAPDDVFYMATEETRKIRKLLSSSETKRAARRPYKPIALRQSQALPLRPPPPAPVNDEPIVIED

Assays:
Assay in all cases: co-IP
[1] = biological target: SUZ12 (endogenous in mouse ESCs) (mouse (endogenous in E14 ESCs)) (UniProt Q80U70)
[2] = biological target: SUZ12 (partner in the mapping co-IP of Figure 2B) (UniProt Q80U70)
[3] = biological target: HDAC1 (endogenous in mouse ESCs) (mouse (endogenous in E14 ESCs)) (UniProt O09106)

Substance: EED (endogenous in mouse ESCs) (from UniProt Q921E6 1-441)
- binding [1]: binds

Substance: RBBP4 most N-terminal segment (1-126 aa) (from UniProt Q60972 1-126) (domain or fragment)
- binding [2]: binds

Substance: MTA1 (endogenous in mouse ESCs) (from UniProt Q8K4B0 1-715)
- binding [3]: binds
